Results are given in words; binding and its absence hold for the method and conditions named. In cells and extracts the contact can be indirect. These calls come from enrichment with a bait or labelling near it, and not all partners need be listed.

Protein sequences, listed by entry. Tags and fused reporters are not part of them.
UniProt P0A6X3: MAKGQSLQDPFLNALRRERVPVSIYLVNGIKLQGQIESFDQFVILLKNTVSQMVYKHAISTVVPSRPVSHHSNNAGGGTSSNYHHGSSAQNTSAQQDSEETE
UniProt P0A7G6: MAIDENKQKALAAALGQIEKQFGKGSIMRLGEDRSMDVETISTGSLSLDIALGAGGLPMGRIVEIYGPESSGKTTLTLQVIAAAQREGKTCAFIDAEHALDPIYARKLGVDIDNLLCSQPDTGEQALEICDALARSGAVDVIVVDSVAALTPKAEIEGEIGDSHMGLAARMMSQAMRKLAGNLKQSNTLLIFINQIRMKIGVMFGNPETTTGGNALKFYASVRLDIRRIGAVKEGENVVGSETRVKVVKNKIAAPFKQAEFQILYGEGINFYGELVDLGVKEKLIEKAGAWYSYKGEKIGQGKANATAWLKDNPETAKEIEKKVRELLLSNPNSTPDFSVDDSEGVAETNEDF
UniProt P0ABK5: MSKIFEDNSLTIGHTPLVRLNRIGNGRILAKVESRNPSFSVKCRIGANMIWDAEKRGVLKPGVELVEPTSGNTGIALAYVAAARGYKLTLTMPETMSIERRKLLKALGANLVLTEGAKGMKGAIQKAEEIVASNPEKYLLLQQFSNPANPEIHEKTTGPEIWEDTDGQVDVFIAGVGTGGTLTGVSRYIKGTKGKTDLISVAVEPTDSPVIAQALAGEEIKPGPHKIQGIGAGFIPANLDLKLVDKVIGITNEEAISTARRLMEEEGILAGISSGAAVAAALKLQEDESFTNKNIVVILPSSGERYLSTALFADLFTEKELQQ
UniProt P0ABB0: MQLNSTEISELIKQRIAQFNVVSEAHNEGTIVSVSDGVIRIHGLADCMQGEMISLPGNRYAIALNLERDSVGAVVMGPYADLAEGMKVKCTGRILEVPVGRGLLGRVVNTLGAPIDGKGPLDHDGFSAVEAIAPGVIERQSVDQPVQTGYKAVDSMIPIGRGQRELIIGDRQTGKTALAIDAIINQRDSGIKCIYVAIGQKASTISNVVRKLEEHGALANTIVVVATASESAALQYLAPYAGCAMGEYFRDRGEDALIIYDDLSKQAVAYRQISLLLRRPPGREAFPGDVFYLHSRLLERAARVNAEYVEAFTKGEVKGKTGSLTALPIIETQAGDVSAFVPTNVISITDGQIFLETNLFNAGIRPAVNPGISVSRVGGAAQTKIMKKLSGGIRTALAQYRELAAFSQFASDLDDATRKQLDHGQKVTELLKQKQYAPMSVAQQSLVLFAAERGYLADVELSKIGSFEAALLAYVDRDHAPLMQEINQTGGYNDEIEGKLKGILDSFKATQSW
UniProt P0AFG8: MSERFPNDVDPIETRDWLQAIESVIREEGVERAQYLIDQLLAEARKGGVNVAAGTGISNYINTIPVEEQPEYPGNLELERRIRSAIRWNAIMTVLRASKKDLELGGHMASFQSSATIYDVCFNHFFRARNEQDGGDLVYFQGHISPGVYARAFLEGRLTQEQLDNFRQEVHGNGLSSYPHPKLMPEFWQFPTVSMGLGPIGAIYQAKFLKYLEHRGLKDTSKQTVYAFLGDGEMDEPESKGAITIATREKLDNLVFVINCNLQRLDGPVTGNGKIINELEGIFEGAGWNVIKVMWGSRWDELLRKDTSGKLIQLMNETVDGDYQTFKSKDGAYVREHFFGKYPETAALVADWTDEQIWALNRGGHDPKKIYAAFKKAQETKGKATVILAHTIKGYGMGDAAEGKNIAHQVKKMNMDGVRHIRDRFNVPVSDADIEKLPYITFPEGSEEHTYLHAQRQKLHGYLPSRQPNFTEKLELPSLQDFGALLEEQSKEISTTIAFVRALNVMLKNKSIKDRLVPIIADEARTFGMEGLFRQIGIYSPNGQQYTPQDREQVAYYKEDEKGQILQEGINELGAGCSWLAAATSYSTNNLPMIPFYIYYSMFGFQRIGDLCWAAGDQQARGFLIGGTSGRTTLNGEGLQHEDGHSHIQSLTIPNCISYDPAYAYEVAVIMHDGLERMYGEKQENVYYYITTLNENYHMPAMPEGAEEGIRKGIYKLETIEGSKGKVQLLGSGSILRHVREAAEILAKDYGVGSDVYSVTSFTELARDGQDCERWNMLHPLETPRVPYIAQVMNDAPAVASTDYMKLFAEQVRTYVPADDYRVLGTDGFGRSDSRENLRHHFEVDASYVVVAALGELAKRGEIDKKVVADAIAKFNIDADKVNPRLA
UniProt P0ABB4: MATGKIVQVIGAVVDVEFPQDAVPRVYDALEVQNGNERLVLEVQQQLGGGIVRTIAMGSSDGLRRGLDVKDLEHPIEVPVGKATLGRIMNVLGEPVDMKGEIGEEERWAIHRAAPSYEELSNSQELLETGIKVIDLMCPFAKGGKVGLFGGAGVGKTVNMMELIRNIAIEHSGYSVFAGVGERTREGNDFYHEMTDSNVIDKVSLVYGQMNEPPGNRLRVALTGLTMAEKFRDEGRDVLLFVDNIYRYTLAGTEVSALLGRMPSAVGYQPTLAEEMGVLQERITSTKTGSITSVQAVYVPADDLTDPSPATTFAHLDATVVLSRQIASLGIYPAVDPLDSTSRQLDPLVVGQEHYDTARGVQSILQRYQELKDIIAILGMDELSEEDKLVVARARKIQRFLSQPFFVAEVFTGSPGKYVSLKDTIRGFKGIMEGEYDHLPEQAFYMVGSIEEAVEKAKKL
UniProt P0ACF0: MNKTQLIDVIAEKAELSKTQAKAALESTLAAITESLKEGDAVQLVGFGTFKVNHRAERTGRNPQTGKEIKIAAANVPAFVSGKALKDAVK
UniProt P0A6Y8: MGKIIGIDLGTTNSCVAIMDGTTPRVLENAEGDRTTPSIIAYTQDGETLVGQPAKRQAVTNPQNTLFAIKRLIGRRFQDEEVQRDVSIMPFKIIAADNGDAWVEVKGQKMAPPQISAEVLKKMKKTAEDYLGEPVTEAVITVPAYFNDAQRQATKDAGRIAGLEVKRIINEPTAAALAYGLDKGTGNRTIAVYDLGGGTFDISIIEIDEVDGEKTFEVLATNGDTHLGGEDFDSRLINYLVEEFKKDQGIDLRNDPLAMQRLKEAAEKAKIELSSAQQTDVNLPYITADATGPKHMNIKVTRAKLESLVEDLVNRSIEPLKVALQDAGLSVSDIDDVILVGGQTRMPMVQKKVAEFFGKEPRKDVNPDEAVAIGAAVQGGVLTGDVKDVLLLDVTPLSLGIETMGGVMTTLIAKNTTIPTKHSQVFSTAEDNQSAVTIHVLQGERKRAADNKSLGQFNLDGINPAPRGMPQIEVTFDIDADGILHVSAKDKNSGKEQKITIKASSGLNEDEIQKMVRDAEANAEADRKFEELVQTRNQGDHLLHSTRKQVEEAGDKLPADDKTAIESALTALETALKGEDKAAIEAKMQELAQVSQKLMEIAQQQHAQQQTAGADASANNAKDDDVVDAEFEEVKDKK
UniProt P0A853: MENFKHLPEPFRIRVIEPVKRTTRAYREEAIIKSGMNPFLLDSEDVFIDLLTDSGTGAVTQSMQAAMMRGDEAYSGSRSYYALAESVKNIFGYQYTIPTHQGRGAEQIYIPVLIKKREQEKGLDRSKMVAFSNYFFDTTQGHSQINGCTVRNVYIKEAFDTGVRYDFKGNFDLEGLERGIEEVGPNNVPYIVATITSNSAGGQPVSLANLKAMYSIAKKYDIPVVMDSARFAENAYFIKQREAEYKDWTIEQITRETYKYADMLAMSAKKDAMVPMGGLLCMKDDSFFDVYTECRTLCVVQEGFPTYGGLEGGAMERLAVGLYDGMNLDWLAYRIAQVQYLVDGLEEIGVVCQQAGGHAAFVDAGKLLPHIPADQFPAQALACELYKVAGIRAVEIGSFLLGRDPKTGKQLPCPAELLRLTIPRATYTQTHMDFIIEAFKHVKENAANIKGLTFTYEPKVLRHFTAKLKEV
UniProt P0A6H5: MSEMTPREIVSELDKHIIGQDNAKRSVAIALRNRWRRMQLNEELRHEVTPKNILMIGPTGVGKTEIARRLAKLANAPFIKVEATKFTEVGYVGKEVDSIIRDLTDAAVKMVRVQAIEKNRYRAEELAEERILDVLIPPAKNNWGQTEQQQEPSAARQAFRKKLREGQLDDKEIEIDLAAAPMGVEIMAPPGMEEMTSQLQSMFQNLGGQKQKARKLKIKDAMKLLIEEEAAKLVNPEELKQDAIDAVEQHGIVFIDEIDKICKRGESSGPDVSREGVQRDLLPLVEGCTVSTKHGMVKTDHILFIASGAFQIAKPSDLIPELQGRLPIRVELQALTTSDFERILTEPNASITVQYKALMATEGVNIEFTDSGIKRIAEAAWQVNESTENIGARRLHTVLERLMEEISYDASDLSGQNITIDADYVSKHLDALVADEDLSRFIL
UniProt P0AES4: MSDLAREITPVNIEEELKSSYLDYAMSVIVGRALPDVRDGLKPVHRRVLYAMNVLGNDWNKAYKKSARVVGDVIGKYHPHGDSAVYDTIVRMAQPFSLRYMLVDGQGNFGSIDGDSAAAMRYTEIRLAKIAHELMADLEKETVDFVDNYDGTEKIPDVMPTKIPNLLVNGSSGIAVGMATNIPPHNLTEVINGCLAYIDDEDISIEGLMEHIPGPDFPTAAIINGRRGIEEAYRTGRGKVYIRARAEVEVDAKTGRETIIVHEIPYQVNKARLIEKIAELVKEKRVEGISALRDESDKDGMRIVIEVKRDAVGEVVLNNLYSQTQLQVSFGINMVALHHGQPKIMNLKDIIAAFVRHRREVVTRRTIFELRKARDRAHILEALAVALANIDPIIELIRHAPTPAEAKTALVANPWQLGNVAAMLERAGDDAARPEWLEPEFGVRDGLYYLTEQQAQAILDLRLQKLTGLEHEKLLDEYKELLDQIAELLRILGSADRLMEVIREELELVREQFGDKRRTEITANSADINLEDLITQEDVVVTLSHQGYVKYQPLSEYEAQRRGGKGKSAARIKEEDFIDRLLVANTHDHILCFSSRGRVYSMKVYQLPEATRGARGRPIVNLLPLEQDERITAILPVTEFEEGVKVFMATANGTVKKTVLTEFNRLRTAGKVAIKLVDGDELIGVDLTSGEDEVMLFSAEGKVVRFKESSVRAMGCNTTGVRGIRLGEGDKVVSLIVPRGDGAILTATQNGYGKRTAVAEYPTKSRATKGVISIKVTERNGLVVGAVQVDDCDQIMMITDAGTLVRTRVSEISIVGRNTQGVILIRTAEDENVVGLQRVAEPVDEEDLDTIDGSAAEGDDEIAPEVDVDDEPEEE
UniProt P0A9M0: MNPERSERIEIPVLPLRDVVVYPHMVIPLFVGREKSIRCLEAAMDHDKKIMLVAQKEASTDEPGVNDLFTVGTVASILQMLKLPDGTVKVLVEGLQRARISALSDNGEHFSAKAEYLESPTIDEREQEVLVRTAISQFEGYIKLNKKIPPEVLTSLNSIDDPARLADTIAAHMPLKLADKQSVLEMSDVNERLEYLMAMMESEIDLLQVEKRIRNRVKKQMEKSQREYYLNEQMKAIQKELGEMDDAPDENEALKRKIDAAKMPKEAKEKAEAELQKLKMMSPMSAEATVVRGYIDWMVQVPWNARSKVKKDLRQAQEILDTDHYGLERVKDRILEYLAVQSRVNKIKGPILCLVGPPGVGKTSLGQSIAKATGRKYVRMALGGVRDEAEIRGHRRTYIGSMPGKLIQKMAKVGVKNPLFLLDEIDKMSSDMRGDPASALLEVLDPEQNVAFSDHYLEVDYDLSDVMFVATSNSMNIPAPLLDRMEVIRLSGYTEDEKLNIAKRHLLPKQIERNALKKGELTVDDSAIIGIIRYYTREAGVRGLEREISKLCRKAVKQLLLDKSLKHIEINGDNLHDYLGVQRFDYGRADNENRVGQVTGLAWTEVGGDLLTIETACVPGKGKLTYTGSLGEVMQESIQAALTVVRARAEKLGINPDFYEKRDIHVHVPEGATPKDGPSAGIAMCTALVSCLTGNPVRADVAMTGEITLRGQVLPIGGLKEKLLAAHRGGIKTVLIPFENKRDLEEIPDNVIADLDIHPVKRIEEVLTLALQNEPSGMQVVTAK
UniProt P24215: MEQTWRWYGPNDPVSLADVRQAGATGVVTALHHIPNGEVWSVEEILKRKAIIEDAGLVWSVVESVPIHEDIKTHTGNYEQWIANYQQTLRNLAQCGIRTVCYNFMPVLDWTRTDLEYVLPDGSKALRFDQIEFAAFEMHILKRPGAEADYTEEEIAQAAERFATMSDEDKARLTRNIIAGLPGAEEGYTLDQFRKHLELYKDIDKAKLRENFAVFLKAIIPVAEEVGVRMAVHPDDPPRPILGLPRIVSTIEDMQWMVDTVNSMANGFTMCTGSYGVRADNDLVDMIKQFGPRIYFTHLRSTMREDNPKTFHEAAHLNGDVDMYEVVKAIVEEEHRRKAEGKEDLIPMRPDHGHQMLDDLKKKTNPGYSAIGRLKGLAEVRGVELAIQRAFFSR
UniProt P0AFZ3: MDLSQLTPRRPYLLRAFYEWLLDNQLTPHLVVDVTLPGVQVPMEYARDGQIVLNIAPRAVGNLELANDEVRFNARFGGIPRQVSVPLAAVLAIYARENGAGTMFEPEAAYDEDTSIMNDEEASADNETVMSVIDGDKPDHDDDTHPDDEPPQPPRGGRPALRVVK

First the molecules themselves.
B1: DNA-binding protein stpA (protein, UniProt P0ACG1 1-134)
chain: MSVMLQSLNNIRTLRAMAREFSIDVLEEMLEKFRVVTKERREEEEQQQRELAERQEKISTWLELMKADGINPEELLGNSSAAAPRAGKKRQPRPAKYKFTDVNGETKTWTGQGRTPKPIAQALAEGKSLDDFLI
B2: HUβ (DbhB) (protein, UniProt P0ACF4 1-90)
chain: MNKSQLIDKIAAGADISKAAAGRALDAIIASVTESLKEGDDVALVGFGTFAVKERAARTGRNPQTGKEITIAAAKVPSFRAGKALKDAVN
B3: 3-oxoacyl-[acyl-carrier-protein] synthase 1 (protein, UniProt P0A953 1-406)
chain: MKRAVITGLGIVSSIGNNQQEVLASLREGRSGITFSQELKDSGMRSHVWGNVKLDTTGLIDRKVVRFMSDASIYAFLSMEQAIADAGLSPEAYQNNPRVGLIAGSGGGSPRFQVFGADAMRGPRGLKAVGPYVVTKAMASGVSACLATPFKIHGVNYSISSACATSAHCIGNAVEQIQLGKQDIVFAGGGEELCWEMACEFDAMGALSTKYNDTPEKASRTYDAHRDGFVIAGGGGMVVVEELEHALARGAHIYAEIVGYGATSDGADMVAPSGEGAVRCMKMAMHGVDTPIDYLNSHGTSTPVGDVKELAAIREVFGDKSPAISATKAMTGHSLGAAGVQEAIYSLLMLEHGFIAPSINIEELDEQAAGLNIVTETTDRELTTVMSNSFGFGGTNATLVMRKLKD
B4: Transcriptional regulatory protein tyrR (protein, UniProt P07604 1-513)
chain: MRLEVFCEDRLGLTRELLDLLVLRGIDLRGIEIDPIGRIYLNFAELEFESFSSLMAEIRRIAGVTDVRTVPWMPSEREHLALSALLEALPEPVLSVDMKSKVDMANPASCQLFGQKLDRLRNHTAAQLINGFNFLRWLESEPQDSHNEHVVINGQNFLMEITPVYLQDENDQHVLTGAVVMLRSTIRMGRQLQNVAAQDVSAFSQIVAVSPKMKHVVEQAQKLAMLSAPLLITGDTGTGKDLFAYACHQASPRAGKPYLALNCASIPEDAVESELFGHAPEGKKGFFEQANGGSVLLDEIGEMSPRMQAKLLRFLNDGTFRRVGEDHEVHVDVRVICATQKNLVELVQKGMFREDLYYRLNVLTLNLPPLRDCPQDIMPLTELFVARFADEQGVPRPKLAADLNTVLTRYAWPGNVRQLKNAIYRALTQLDGYELRPQDILLPDYDAATVAVGEDAMEGSLDEITSRFERSVLTQLYRNYPSTRKLAKRLGVSHTAIANKLREYGLSQKKNEE
B5: Soluble pyridine nucleotide transhydrogenase (protein, UniProt P27306 1-466)
chain: MPHSYDYDAIVIGSGPGGEGAAMGLVKQGARVAVIERYQNVGGGCTHWGTIPSKALRHAVSRIIEFNQNPLYSDHSRLLRSSFADILNHADNVINQQTRMRQGFYERNHCEILQGNARFVDEHTLALDCPDGSVETLTAEKFVIACGSRPYHPTDVDFTHPRIYDSDSILSMHHEPRHVLIYGAGVIGCEYASIFRGMDVKVDLINTRDRLLAFLDQEMSDSLSYHFWNSGVVIRHNEEYEKIEGCDDGVIMHLKSGKKLKADCLLYANGRTGNTDSLALQNIGLETDSRGQLKVNSMYQTAQPHVYAVGDVIGYPSLASAAYDQGRIAAQALVKGEATAHLIEDIPTGIYTIPEISSVGKTEQQLTAMKVPYEVGRAQFKHLARAQIVGMNVGTLKILFHRETKEILGIHCFGERAAEIIHIGQAIMEQKGGGNTIEYFVNTTFNYPTMAEAYRVAALNGLNRLF
B6: Uncharacterized N-acetyltransferase YhbS (protein, UniProt P63417 1-167)
chain: MLIRVEIPIDAPGIDALLRRSFESDAEAKLVHDLREDGFLTLGLVATDDEGQVIGYVAFSPVDVQGEDLQWVGMAPLAVDEKYRGQGLARQLVYEGLDSLNEFGYAAVVTLGDPALYSRFGFELAAHHDLRCRWPGTESAFQVHRLADDALNGVTGLVEYHEHFNRF
B7: isocitrate lyase (protein, UniProt P0A9G6 1-434)
chain: MKTRTQQIEELQKEWTQPRWEGITRPYSAEDVVKLRGSVNPECTLAQLGAAKMWRLLHGESKKGYINSLGALTGGQALQQAKAGIEAVYLSGWQVAADANLAASMYPDQSLYPANSVPAVVERINNTFRRADQIQWSAGIEPGDPRYVDYFLPIVADAEAGFGGVLNAFELMKAMIEAGAAAVHFEDQLASVKKCGHMGGKVLVPTQEAIQKLVAARLAADVTGVPTLLVARTDADAADLITSDCDPYDSEFITGERTSEGFFRTHAGIEQAISRGLAYAPYADLVWCETSTPDLELARRFAQAIHAKYPGKLLAYNCSPSFNWQKNLDDKTIASFQQQLSDMGYKFQFITLAGIHSMWFNMFDLANAYAQGEGMKHYVEKVQQPEFAAAKDGYTFVSHQQEVGTGYFDKVTTIIQGGTSSVTALTGSTEESQF
B8: Bifunctional protein putA (protein, UniProt P09546 1-1320)
chain: MGTTTMGVKLDDATRERIKSAATRIDRTPHWLIKQAIFSYLEQLENSDTLPELPALLSGAANESDEAPTPAEEPHQPFLDFAEQILPQSVSRAAITAAYRRPETEAVSMLLEQARLPQPVAEQAHKLAYQLADKLRNQKNASGRAGMVQGLLQEFSLSSQEGVALMCLAEALLRIPDKATRDALIRDKISNGNWQSHIGRSPSLFVNAATWGLLFTGKLVSTHNEASLSRSLNRIIGKSGEPLIRKGVDMAMRLMGEQFVTGETIAEALANARKLEEKGFRYSYDMLGEAALTAADAQAYMVSYQQAIHAIGKASNGRGIYEGPGISIKLSALHPRYSRAQYDRVMEELYPRLKSLTLLARQYDIGINIDAEESDRLEISLDLLEKLCFEPELAGWNGIGFVIQAYQKRCPLVIDYLIDLATRSRRRLMIRLVKGAYWDSEIKRAQMDGLEGYPVYTRKVYTDVSYLACAKKLLAVPNLIYPQFATHNAHTLAAIYQLAGQNYYPGQYEFQCLHGMGEPLYEQVTGKVADGKLNRPCRIYAPVGTHETLLAYLVRRLLENGANTSFVNRIADTSLPLDELVADPVTAVEKLAQQEGQTGLPHPKIPLPRDLYGHGRDNSAGLDLANEHRLASLSSALLNSALQKWQALPMLEQPVAAGEMSPVINPAEPKDIVGYVREATPREVEQALESAVNNAPIWFATPPAERAAILHRAAVLMESQMQQLIGILVREAGKTFSNAIAEVREAVDFLHYYAGQVRDDFANETHRPLGPVVCISPWNFPLAIFTGQIAAALAAGNSVLAKPAEQTPLIAAQGIAILLEAGVPPGVVQLLPGRGETVGAQLTGDDRVRGVMFTGSTEVATLLQRNIASRLDAQGRPIPLIAETGGMNAMIVDSSALTEQVVVDVLASAFDSAGQRCSALRVLCLQDEIADHTLKMLRGAMAECRMGNPGRLTTDIGPVIDSEAKANIERHIQTMRSKGRPVFQAVRENSEDAREWQSGTFVAPTLIELDDFAELQKEVFGPVLHVVRYNRNQLPELIEQINASGYGLTLGVHTRIDETIAQVTGSAHVGNLYVNRNMVGAVVGVQPFGGEGLSGTGPKAGGPLYLYRLLANRPESALAVTLARQDAKYPVDAQLKAALTQPLNALREWAANRPELQALCTQYGELAQAGTQRLLPGPTGERNTWTLLPRERVLCIADDEQDALTQLAAVLAVGSQVLWPDDALHRQLVKALPSAVSERIQLAKAENITAQPFDAVIFHGDSDQLRALCEAVAARDGTIVSVQGFARGESNILLERLYIERSLSVNTAAAGGNASLMTIG
B9: Transcriptional regulatory protein ompR (protein, UniProt P0AA16 1-239)
chain: MQENYKILVVDDDMRLRALLERYLTEQGFQVRSVANAEQMDRLLTRESFHLMVLDLMLPGEDGLSICRRLRSQSNPMPIIMVTAKGEEVDRIVGLEIGADDYIPKPFNPRELLARIRAVLRRQANELPGAPSQEEAVIAFGKFKLNLGTREMFREDEPMPLTSGEFAVLKALVSHPREPLSRDKLMNLARGREYSAMERSIDVQISRLRRMVEEDPAHPRYIQTVWGLGYVFVPDGSKA
B10: Ethanolamine ammonia-lyase heavy chain (protein, UniProt P0AEJ6 1-453)
chain: MKLKTTLFGNVYQFKDVKEVLAKANELRSGDVLAGVAAASSQERVAAKQVLSEMTVADIRNNPVIAYEDDCVTRLIQDDVNETAYNQIKNWSISELREYVLSDETSVDDIAFTRKGLTSEVVAAVAKICSNADLIYGAKKMPVIKKANTTIGIPGTFSARLQPNDTRDDVQSIAAQIYEGLSFGVGDAVIGVNPVTDDVENLSRVLDTIYGVIDKFNIPTQGCVLAHVTTQIEAIRRGAPGGLIFQSICGSEKGLKEFGVELAMLDEARAVGAEFNRIAGENCLYFETGQGSALSAGANFGADQVTMEARNYGLARHYDPFIVNTVVGFIGPEYLYNDRQIIRAGLEDHFMGKLSGISMGCDCCYTNHADADQNLNENLMILLATAGCNYIMGMPLGDDIMLNYQTTAFHDTATVRQLLNLRPSPEFERWLESMGIMANGRLTKRAGDPSLFF

This assay deals with HfqTT (TAP-tagged Hfq) (E. coli) (UniProt P0A6X3). In words: affinity purification with mass spectrometry; TAP-tag: HfqTT (or the TAP-tag peptide as control) as bait in extracts of IBhfq95Δhfq, exponential and stationary phase; IgG Sepharose, TEV cleavage, calmodulin beads; half of each sample treated with 0.1 µg/µl RNase A for 30 min at 37 °C before the calmodulin beads; an interaction called RNA dependent when the number of peptides fell by more than 30% after RNase A.
On to RecA (from UniProt P0A7G6 1-353), for which the binding result is given as “binds”. “Cysteine synthase A (from UniProt P0ABK5 1-323)”: the binding entry is recorded as “binds”. Next, “ATP synthase subunit alpha (from UniProt P0ABB0 1-513)”: “binds”; “Pyruvate deshydrogenase E1 component (from UniProt P0AFG8 1-887)”: “binds”; “ATP synthase subunit beta (from UniProt P0ABB4 1-460)”: “binds”. Consider HUα (DbhA) (from UniProt P0ACF0 1-90), for which the binding entry is “binds”. Consider “Chaperone protein dnaK (from UniProt P0A6Y8 1-638)”, for which the binding entry is recorded as “binds”. With “Tryptophanase (from UniProt P0A853 1-471)”, the binding result is reported as “binds”. Consider “Elongation Factor Tu (from UniProt P0CE47)”, for which the binding entry was “binds”. Consider “ATP-dependent protease ATPase subunit hslU (from UniProt P0A6H5 1-443)”, for which the binding entry is on record as “binds”. Turning to “DNA gyrase subunit A (from UniProt P0AES4 1-875)”, the binding entry is on record as “binds”. As to “Lon protease (from UniProt P0A9M0 1-784)”, the binding entry is “binds”. Next, “Mannonate dehydratase (from UniProt P24215 1-394)”: “binds”. “Stringent starvation protein B (from UniProt P0AFZ3 1-165)”: the binding result was “binds”. For B1, the binding entry was “binds”. Regarding B2, the binding result is reported as “binds”. In the case of B3, the binding entry is on record as “binds”. Next, B4: “binds”; B5: “binds”; B6: “binds”.

B7: the binding entry is “binds”. As to B8, the binding result is “binds”. B9: the binding result was “binds”.

Take B10: the binding entry is listed as “binds”.

The record behind these values is article PMC6773851, “Identification of protein-protein and ribonucleoprotein complexes containing Hfq” (Scientific Reports, 2019).
